Results are given in words; binding and its absence hold for the method and conditions named. In cells and extracts the contact can be indirect. Binding can be weak; no strength is given.
Biological target: AURKA, ectopically expressed (co-IP of Supplementary Fig. 3h,i,k) (human) (UniProt O14965)
Assay: co-IP; ectopically expressed proteins; RIPA lysate, 1 μg antibody and 200–500 μg lysate

By UniProt entry, the sequences of proteins in these tests, tags left out.
UniProt O14965: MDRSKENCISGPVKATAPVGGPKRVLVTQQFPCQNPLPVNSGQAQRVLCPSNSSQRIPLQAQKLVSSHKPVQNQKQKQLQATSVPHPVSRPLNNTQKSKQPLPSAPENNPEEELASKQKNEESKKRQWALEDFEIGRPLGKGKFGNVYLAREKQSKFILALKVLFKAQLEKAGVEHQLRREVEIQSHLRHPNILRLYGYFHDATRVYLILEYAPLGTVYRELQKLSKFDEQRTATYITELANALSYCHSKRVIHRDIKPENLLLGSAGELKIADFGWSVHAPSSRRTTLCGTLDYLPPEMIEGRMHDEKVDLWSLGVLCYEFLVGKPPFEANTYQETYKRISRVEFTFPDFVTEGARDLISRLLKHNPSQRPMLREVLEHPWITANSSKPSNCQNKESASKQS

binding: binds
Substance: hnRNP K with mutation of S379 site (from UniProt P61978)

— paper PMC4735655
